Values from PubChem BioAssay AID1259292 (Sanger Institute, 2017)

Screen: 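Kinase silencing that boosts cell killing by targeted cancer drugs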 (follow-up of hits)
Cells: human colorectal cancer RCM1 cells
Reagent: single siRNA against human genes
Treatment: anchor drugs BYL719 at 1 µM, cetuximab at 5 µg/ml or trametinib at 10 nM, or DMSO vehicle; exposure time not given
Measurement: 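Replicate-averaged viability as a fraction of non-targeting pool 2 wells, under DMSO, BYL719 1 µM, cetuximab 5 µg/ml or trametinib 10 nM (time unstated), plus a synergy score for each drug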
Reading the numbers: synergy score with trametinib and synergy score with cetuximab and synergy score with BYL719: higher = stronger combined killing beyond expected (synthetic lethal)
Rule for the call: 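Synergy called if the score for BYL719, cetuximab or trametinib, any one of them, exceeds 0.10; genes below this for all three show no synergy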
Calls: active = synergy with at least one anchor drug; inactive = no synergy with any anchor drug
This is one part, drawn at random, of 160 reagents tested. Over the whole deposit, 64 (40%) got an active call. 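Four separate siRNAs per gene; a call can rest on any single drug, so look at each drug's score.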 Entries without a mark were called inactive. Reagents against one gene are numbered here. Not all columns of the deposit are shown. Not stated in the record: the amount of reagent, the time to read-out.

What did the screen give for AK2 #1?
synergy score with trametinib: 0.112 (active); synergy score with cetuximab: 0.0675; synergy score with BYL719: 0.0245

With AK2 #2, what was measured?
synergy score with trametinib: 0.264 (active); synergy score with cetuximab: -0.0247; synergy score with BYL719: -0.0665

What is on record for AK2 #3?
synergy score with trametinib: -0.0779; synergy score with cetuximab: -0.0686; synergy score with BYL719: -0.162

Which result is listed for AK2 #4?
synergy score with trametinib: 0.325 (active); synergy score with cetuximab: -0.0596; synergy score with BYL719: 0.0428

With MAP3K8 #1, what was measured?
synergy score with trametinib: -0.0877; synergy score with cetuximab: -0.0686; synergy score with BYL719: -0.162

Which result is listed for MAP3K8 #2?
synergy score with trametinib: -0.0811 (active); synergy score with cetuximab: 0.115; synergy score with BYL719: 0.0606

What did the screen give for MAP3K8 #3?
synergy score with trametinib: 0.0934 (active); synergy score with cetuximab: 0.176; synergy score with BYL719: 0.0993

What is on record for MAP3K8 #4?
synergy score with trametinib: 0.214 (active); synergy score with cetuximab: 0.117; synergy score with BYL719: 0.0276
